Data reported in the supplement of paper PMC12823440, “Inhibitors supercharge kinase turnover through native proteolytic circuits” (Nature, 2025).
Some of the results follow. Hit calls seldom repeat between salt and free forms of one compound.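 Kinases were expressed as nanoluciferase fusions in K562 cells and luminescence was read every 4 h between 2 and 18 h as percent of control, DMSO set to 100% and a positive control to 0%. A time point counts as decreased when the signal drops significantly (2 sigma). The hit call is the authors' own, does not follow from the count of time points alone, and its rule is not shown.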

Protein sequences, listed by entry. Tags and fused reporters are not part of them. Lines headed by an entry give the natural chain unless they say otherwise; changes in a name come on top.
UniProt P31152, whole entry: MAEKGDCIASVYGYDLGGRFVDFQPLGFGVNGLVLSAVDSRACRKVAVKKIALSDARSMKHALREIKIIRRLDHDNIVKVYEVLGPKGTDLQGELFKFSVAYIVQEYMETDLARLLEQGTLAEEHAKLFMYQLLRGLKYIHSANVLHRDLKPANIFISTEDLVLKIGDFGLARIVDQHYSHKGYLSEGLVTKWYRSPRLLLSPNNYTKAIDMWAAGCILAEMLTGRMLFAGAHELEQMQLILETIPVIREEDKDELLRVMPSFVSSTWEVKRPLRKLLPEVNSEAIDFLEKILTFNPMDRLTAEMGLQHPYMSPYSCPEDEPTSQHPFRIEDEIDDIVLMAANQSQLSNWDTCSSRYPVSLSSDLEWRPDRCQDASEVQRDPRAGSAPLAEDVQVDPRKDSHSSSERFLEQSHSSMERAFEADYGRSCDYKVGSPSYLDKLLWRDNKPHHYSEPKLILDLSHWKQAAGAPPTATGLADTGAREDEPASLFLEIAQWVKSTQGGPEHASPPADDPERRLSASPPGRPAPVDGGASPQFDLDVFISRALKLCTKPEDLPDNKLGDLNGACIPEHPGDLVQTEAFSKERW
UniProt Q9BUB5: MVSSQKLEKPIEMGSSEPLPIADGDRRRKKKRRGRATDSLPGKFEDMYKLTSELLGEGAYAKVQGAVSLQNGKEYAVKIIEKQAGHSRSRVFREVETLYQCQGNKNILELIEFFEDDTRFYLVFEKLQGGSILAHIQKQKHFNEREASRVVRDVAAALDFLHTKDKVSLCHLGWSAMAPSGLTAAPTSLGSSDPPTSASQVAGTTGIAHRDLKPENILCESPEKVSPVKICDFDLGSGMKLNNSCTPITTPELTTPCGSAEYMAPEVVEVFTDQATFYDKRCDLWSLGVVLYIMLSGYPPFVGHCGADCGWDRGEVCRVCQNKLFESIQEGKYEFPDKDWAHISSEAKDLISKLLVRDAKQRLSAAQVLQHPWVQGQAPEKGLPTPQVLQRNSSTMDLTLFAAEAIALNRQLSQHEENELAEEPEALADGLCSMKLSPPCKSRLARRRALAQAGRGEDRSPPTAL
UniProt Q16620, whole entry, looked up: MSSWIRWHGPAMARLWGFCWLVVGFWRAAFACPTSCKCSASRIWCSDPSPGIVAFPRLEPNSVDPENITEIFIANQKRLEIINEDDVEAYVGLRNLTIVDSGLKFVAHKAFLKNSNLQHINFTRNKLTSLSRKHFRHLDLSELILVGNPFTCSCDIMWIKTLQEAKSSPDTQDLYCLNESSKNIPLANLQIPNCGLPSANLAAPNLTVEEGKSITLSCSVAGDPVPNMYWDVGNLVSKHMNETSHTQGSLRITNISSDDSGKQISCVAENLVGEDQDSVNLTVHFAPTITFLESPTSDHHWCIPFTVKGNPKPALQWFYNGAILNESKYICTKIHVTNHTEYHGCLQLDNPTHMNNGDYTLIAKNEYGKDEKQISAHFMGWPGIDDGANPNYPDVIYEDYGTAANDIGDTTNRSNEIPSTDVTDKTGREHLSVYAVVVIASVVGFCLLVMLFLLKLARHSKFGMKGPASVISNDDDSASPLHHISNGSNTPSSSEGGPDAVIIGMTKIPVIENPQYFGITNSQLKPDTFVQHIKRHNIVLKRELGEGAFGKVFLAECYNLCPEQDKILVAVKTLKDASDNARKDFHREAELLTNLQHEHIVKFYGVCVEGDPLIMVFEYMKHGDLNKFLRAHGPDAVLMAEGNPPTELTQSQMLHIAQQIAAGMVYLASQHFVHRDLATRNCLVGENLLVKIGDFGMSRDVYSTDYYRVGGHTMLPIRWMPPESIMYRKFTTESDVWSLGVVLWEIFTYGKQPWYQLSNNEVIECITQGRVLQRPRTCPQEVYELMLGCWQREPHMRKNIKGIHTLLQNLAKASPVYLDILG
UniProt O96013: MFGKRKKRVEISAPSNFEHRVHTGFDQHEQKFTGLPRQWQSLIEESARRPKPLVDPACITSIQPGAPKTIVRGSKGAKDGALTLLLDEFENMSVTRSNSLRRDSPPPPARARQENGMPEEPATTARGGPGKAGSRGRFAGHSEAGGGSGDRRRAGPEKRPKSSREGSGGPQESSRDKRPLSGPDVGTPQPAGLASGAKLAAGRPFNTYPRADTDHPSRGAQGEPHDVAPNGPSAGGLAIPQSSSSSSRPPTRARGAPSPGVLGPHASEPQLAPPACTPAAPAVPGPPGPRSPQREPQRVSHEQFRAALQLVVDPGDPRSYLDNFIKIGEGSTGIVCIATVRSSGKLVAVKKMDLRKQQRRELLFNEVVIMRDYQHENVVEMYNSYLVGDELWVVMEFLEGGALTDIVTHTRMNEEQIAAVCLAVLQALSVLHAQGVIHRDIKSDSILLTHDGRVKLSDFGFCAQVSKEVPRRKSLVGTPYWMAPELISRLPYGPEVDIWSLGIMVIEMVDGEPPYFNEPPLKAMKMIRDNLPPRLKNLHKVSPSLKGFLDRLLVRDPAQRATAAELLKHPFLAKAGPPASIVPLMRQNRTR
UniProt Q96KB5: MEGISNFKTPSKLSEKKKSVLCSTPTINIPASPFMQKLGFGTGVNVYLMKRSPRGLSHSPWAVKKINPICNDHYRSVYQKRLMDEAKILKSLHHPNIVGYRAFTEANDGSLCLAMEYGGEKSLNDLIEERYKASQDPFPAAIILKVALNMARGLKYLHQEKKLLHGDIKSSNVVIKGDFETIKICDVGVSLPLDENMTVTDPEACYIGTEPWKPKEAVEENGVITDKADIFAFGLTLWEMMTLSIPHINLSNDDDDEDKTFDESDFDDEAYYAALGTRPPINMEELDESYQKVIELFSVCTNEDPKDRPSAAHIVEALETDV
UniProt P42356, whole entry, looked up: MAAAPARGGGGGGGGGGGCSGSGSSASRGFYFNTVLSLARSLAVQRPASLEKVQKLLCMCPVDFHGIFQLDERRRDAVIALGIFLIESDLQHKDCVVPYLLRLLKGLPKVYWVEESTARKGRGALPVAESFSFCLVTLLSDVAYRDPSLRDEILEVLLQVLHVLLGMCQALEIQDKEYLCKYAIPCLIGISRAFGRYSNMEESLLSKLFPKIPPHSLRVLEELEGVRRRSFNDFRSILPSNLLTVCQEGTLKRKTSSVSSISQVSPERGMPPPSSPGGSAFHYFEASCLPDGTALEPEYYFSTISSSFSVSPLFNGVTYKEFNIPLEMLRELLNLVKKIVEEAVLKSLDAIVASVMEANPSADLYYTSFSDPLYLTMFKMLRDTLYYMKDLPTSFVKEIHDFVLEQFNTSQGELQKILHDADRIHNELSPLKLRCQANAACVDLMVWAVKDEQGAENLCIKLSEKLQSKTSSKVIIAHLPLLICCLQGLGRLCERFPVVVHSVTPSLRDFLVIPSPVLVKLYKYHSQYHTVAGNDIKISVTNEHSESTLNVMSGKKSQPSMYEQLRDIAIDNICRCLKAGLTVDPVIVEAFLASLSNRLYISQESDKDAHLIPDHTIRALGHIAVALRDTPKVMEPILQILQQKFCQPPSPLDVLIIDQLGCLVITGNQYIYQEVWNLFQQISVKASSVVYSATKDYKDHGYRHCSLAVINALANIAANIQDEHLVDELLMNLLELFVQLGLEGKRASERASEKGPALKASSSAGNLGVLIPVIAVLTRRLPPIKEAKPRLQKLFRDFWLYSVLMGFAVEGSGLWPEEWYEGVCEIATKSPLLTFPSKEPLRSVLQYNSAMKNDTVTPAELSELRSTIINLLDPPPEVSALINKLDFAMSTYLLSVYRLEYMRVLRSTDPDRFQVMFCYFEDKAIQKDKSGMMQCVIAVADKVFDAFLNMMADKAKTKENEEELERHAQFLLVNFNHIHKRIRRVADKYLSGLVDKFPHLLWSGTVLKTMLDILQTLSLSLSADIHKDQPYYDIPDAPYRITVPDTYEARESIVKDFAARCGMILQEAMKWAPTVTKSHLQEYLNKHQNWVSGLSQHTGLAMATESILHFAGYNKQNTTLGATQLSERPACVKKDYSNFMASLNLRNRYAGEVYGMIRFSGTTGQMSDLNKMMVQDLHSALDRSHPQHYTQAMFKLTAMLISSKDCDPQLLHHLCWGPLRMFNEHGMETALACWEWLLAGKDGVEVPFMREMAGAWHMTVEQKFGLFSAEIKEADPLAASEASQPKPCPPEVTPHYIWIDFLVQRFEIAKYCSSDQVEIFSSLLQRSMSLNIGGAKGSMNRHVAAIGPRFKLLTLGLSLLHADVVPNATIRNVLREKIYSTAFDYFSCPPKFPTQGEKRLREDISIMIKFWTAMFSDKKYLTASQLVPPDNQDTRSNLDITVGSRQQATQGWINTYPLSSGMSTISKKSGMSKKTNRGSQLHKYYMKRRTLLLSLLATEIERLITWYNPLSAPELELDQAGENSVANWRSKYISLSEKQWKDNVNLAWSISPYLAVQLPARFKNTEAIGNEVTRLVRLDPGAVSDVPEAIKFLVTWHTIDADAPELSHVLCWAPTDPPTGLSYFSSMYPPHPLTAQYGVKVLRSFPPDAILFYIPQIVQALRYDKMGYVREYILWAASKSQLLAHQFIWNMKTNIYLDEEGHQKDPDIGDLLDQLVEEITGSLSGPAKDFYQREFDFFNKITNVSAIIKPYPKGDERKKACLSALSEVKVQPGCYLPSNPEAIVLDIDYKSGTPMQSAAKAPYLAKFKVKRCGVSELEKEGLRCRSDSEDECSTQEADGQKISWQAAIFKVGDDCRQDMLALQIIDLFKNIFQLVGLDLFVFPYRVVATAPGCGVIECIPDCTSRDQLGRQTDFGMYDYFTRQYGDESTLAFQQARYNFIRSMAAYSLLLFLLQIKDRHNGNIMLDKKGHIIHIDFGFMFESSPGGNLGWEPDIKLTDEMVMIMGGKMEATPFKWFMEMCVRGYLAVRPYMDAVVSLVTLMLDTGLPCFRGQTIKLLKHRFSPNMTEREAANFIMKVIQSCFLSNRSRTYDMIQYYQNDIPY
UniProt Q14289, whole entry, looked up: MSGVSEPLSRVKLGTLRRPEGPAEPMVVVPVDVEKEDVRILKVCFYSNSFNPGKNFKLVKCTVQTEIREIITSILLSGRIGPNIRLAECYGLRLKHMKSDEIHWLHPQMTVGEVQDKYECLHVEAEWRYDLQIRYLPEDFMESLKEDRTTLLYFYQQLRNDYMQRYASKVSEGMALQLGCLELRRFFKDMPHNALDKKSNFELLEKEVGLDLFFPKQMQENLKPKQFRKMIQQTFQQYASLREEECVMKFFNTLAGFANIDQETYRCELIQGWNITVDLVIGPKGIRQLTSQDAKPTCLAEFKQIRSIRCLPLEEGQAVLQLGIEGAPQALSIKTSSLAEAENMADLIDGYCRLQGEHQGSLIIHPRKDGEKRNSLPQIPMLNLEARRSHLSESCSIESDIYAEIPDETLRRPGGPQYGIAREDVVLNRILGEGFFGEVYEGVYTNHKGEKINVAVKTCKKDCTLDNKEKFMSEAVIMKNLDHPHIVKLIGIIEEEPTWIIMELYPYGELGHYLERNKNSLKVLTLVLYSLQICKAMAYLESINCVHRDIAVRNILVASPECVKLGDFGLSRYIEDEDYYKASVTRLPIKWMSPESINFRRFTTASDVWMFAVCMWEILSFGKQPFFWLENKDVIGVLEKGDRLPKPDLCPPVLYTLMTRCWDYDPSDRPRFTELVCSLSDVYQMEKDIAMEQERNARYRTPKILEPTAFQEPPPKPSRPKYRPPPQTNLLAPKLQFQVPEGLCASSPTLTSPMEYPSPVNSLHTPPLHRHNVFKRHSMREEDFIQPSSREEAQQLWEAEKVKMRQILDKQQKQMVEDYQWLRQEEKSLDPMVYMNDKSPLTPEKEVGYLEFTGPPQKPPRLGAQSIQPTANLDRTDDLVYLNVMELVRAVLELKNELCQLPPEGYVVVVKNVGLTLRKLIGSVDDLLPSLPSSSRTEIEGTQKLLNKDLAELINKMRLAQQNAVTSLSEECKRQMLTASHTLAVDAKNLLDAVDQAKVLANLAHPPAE

Key:
Test in all cases: kinase-Nluc reporter destabilization hit call (1 = scored as downregulated) (binary); higher = compound decreases kinase abundance
Settings in all cases: K562; 2-18 h
MAPK1 = MAPK1 (UniProt P28482)
MAPK4 = MAPK4 (UniProt P31152)
MAPKAPK2 = MAPKAPK2 (UniProt P49137)
MKNK1 = MKNK1 (UniProt Q9BUB5)
NTRK2 = NTRK2 (UniProt Q16620)
NTRK3 = NTRK3 (UniProt Q16288)
PAK4 = PAK4 (UniProt O96013)
PBK = PBK (UniProt Q96KB5)
PDGFRB = PDGFRB (UniProt P09619)
PDK1 = PDK1 (UniProt Q15118)
PDPK1 = PDPK1 (UniProt O15530)
PIK4CA = PIK4CA (UniProt P42356)
PIK4CB = PIK4CB (UniProt Q9UBF8)
PLK1 = PLK1 (UniProt P53350)
PRKAA1 = PRKAA1 (UniProt Q13131)
PRKCA = PRKCA (UniProt P17252)
PTK2 = PTK2 (UniProt Q05397)
PTK2B = PTK2B (UniProt Q14289)
RAF1 = RAF1 (UniProt P04049)
[1] = biological target: RAF1_S257L (clone: RAF1_mut) (UniProt P04049)

Row | SMILES | kinase-Nluc reporter destabilization hit call (MAPK1) | kinase-Nluc reporter destabilization hit call (MAPK4) | kinase-Nluc reporter destabilization hit call (MAPKAPK2) | kinase-Nluc reporter destabilization hit call (MKNK1) | kinase-Nluc reporter destabilization hit call (NTRK2) | kinase-Nluc reporter destabilization hit call (NTRK3) | kinase-Nluc reporter destabilization hit call (PAK4) | kinase-Nluc reporter destabilization hit call (PBK) | kinase-Nluc reporter destabilization hit call (PDGFRB) | kinase-Nluc reporter destabilization hit call (PDK1) | kinase-Nluc reporter destabilization hit call (PDPK1) | kinase-Nluc reporter destabilization hit call (PIK4CA) | kinase-Nluc reporter destabilization hit call (PIK4CB) | kinase-Nluc reporter destabilization hit call (PLK1) | kinase-Nluc reporter destabilization hit call (PRKAA1) | kinase-Nluc reporter destabilization hit call (PRKCA) | kinase-Nluc reporter destabilization hit call (PTK2) | kinase-Nluc reporter destabilization hit call (PTK2B) | kinase-Nluc reporter destabilization hit call (RAF1) | kinase-Nluc reporter destabilization hit call [1]
1 | Cn1nc(C(C)(C)C)cc1NC(=O)Nc1ccc(Oc2ccncc2)cc1 (10 µM) | inactive: 0 | inactive: 0 | inactive: 0 | inactive: 0 | inactive: 0 | inactive: 0 | inactive: 0 | inactive: 0 | inactive: 0 | inactive: 0 | inactive: 0 | inactive: 0 | inactive: 0 | inactive: 0 | inactive: 0 | inactive: 0 | inactive: 0 | inactive: 0 | inactive: 0 | inactive: 0
2 | CC1(C)CC=C(c2nc(C3CC(C)(C)OC(C)(C)C3)ccc2NC(=O)c2nc(C#N)c[nH]2)CC1 [Edicotinib] (2.5 µM) | inactive: 0 | inactive: 0 | inactive: 0 | inactive: 0 | inactive: 0 | inactive: 0 | inactive: 0 | inactive: 0 | inactive: 0 | inactive: 0 | inactive: 0 | inactive: 0 | inactive: 0 | inactive: 0 | inactive: 0 | inactive: 0 | inactive: 0 | inactive: 0 | inactive: 0 | inactive: 0
3 | CCCS(=O)(=O)Nc1ccc(F)c(C(=O)c2c[nH]c3ncc(Cl)cc23)c1F (10 µM) | inactive: 0 | inactive: 0 | inactive: 0 | inactive: 0 | inactive: 0 | inactive: 0 | inactive: 0 | inactive: 0 | inactive: 0 | inactive: 0 | inactive: 0 | inactive: 0 | inactive: 0 | inactive: 0 | inactive: 0 | inactive: 0 | inactive: 0 | inactive: 0 | inactive: 0 | inactive: 0
4 | Cc1c(C(=O)N2CCOc3ccc(-c4ccc(N)nc4)cc3C2)ccc(S(C)(=O)=O)c1F (10 µM) | inactive: 0 | inactive: 0 | inactive: 0 | inactive: 0 | inactive: 0 | inactive: 0 | inactive: 0 | inactive: 0 | inactive: 0 | inactive: 0 | inactive: 0 | inactive: 0 | inactive: 0 | inactive: 0 | inactive: 0 | inactive: 0 | inactive: 0 | inactive: 0 | inactive: 0 | inactive: 0
5 | CN(C)Cc1ccc(-c2cnn3c(-c4cccc(NC(=O)c5cccc(C(F)(F)F)c5)c4)ccnc23)cc1 (2.5 µM) | inactive: 0 | inactive: 0 | inactive: 0 | inactive: 0 | inactive: 0 | inactive: 0 | inactive: 0 | inactive: 0 | inactive: 0 | inactive: 0 | inactive: 0 | inactive: 0 | inactive: 0 | inactive: 0 | inactive: 0 | inactive: 0 | inactive: 0 | inactive: 0 | inactive: 0 | inactive: 0
6 | C=CC(=O)N1C[C@H](Nc2ncnc3[nH]ccc23)CC[C@@H]1C [Ritlecitinib] (10 µM) | inactive: 0 | inactive: 0 | inactive: 0 | inactive: 0 | inactive: 0 | inactive: 0 | inactive: 0 | inactive: 0 | inactive: 0 | inactive: 0 | inactive: 0 | inactive: 0 | inactive: 0 | inactive: 0 | inactive: 0 | inactive: 0 | inactive: 0 | inactive: 0 | inactive: 0 | inactive: 0
7 | CN1CCN(S(=O)(=O)c2ccc(-c3cnc(N)c(C(=O)Nc4cccnc4)n3)cc2)CC1 (10 µM) | inactive: 0 | inactive: 0 | inactive: 0 | inactive: 0 | inactive: 0 | inactive: 0 | inactive: 0 | inactive: 0 | inactive: 0 | inactive: 0 | inactive: 0 | inactive: 0 | inactive: 0 | inactive: 0 | inactive: 0 | inactive: 0 | inactive: 0 | inactive: 0 | inactive: 0 | inactive: 0
8 | O=C1c2ccccc2-c2n[nH]c3cccc1c23 (10 µM) | inactive: 0 | inactive: 0 | inactive: 0 | inactive: 0 | inactive: 0 | inactive: 0 | inactive: 0 | inactive: 0 | inactive: 0 | inactive: 0 | inactive: 0 | inactive: 0 | inactive: 0 | inactive: 0 | inactive: 0 | inactive: 0 | inactive: 0 | inactive: 0 | inactive: 0 | inactive: 0
9 | COc1ccc(Oc2cc(NCCC(F)(F)F)c3ncc(-c4ccc(C(=O)NC5CC5)c(C)c4)n3n2)c(F)c1F (2.5 µM) | inactive: 0 | inactive: 0 | inactive: 0 | inactive: 0 | inactive: 0 | inactive: 0 | inactive: 0 | inactive: 0 | inactive: 0 | inactive: 0 | inactive: 0 | inactive: 0 | inactive: 0 | inactive: 0 | inactive: 0 | inactive: 0 | inactive: 0 | inactive: 0 | inactive: 0 | inactive: 0
10 | Brc1c(Br)c(Br)c2n[nH]nc2c1Br (10 µM) | inactive: 0 | inactive: 0 | inactive: 0 | inactive: 0 | inactive: 0 | inactive: 0 | inactive: 0 | inactive: 0 | inactive: 0 | inactive: 0 | inactive: 0 | inactive: 0 | inactive: 0 | inactive: 0 | inactive: 0 | inactive: 0 | inactive: 0 | inactive: 0 | inactive: 0 | inactive: 0
11 | NC(=O)c1ccc(-c2nc(-c3ccccn3)c(-c3ccc4c(c3)OCO4)[nH]2)cc1 (10 µM) | inactive: 0 | inactive: 0 | inactive: 0 | inactive: 0 | inactive: 0 | inactive: 0 | inactive: 0 | inactive: 0 | inactive: 0 | inactive: 0 | inactive: 0 | inactive: 0 | inactive: 0 | inactive: 0 | inactive: 0 | inactive: 0 | inactive: 0 | inactive: 0 | inactive: 0 | inactive: 0
12 | C=CC(=O)Nc1cccc(Nc2nc(Nc3ccc(OCCOC)cc3)ncc2F)c1 [Spebrutinib] (10 µM) | inactive: 0 | inactive: 0 | inactive: 0 | inactive: 0 | inactive: 0 | inactive: 0 | inactive: 0 | inactive: 0 | inactive: 0 | inactive: 0 | inactive: 0 | inactive: 0 | inactive: 0 | inactive: 0 | inactive: 0 | inactive: 0 | inactive: 0 | inactive: 0 | inactive: 0 | inactive: 0
13 | Nc1ncnc2c1c(-c1ccc(Oc3ccccc3)cc1)cn2C1CCCC1 (2.5 µM) | inactive: 0 | inactive: 0 | inactive: 0 | inactive: 0 | inactive: 0 | inactive: 0 | inactive: 0 | inactive: 0 | inactive: 0 | inactive: 0 | inactive: 0 | inactive: 0 | inactive: 0 | inactive: 0 | inactive: 0 | inactive: 0 | inactive: 0 | active: 1 | inactive: 0 | inactive: 0
14 | COc1cc(CCc2cc(-c3nc4ccc(N5CCN(C)CC5)cc4[nH]3)n[nH]2)cc(OC)c1 (10 µM) | inactive: 0 | inactive: 0 | inactive: 0 | inactive: 0 | inactive: 0 | inactive: 0 | inactive: 0 | inactive: 0 | inactive: 0 | inactive: 0 | inactive: 0 | inactive: 0 | inactive: 0 | inactive: 0 | inactive: 0 | inactive: 0 | inactive: 0 | inactive: 0 | inactive: 0 | active: 1
15 | COc1cc2ncnc(Nc3cccc(Cl)c3F)c2cc1OC(=O)N1CCN(C)C[C@H]1C [Zorifertinib] (10 µM) | inactive: 0 | inactive: 0 | inactive: 0 | inactive: 0 | inactive: 0 | inactive: 0 | inactive: 0 | inactive: 0 | inactive: 0 | inactive: 0 | inactive: 0 | inactive: 0 | inactive: 0 | inactive: 0 | inactive: 0 | inactive: 0 | inactive: 0 | inactive: 0 | inactive: 0 | inactive: 0
16 | COc1cc(Oc2ccnc3cc(OC)c(OC)cc23)ccc1NC(=O)NC(C)c1nccs1 (stereo not given) (2.5 µM) | inactive: 0 | inactive: 0 | inactive: 0 | inactive: 0 | inactive: 0 | inactive: 0 | inactive: 0 | inactive: 0 | inactive: 0 | inactive: 0 | inactive: 0 | inactive: 0 | inactive: 0 | inactive: 0 | inactive: 0 | inactive: 0 | inactive: 0 | inactive: 0 | inactive: 0 | inactive: 0
17 | Cc1nc(N)sc1-c1ccnc(Nc2ccc(N3CCOCC3)cc2)n1 (10 µM) | inactive: 0 | inactive: 0 | inactive: 0 | inactive: 0 | inactive: 0 | inactive: 0 | inactive: 0 | inactive: 0 | inactive: 0 | inactive: 0 | inactive: 0 | inactive: 0 | inactive: 0 | inactive: 0 | inactive: 0 | inactive: 0 | inactive: 0 | inactive: 0 | inactive: 0 | inactive: 0
18 | Cc1cc(CS(=O)(=O)c2ccccc2)cc(OCc2ccc(CN3CCC[C@@H]3CO)cc2)c1 [PF-543 (Citrate)] (10 µM) | inactive: 0 | inactive: 0 | inactive: 0 | inactive: 0 | inactive: 0 | inactive: 0 | inactive: 0 | inactive: 0 | inactive: 0 | inactive: 0 | inactive: 0 | inactive: 0 | inactive: 0 | inactive: 0 | inactive: 0 | inactive: 0 | inactive: 0 | inactive: 0 | inactive: 0 | inactive: 0

Ordered by length of the SMILES (rising): three of the compounds above.
Row | SMILES | kinase-Nluc reporter destabilization hit call (MAPK1) | kinase-Nluc reporter destabilization hit call (MAPK4) | kinase-Nluc reporter destabilization hit call (MAPKAPK2) | kinase-Nluc reporter destabilization hit call (MKNK1) | kinase-Nluc reporter destabilization hit call (NTRK2) | kinase-Nluc reporter destabilization hit call (NTRK3) | kinase-Nluc reporter destabilization hit call (PAK4) | kinase-Nluc reporter destabilization hit call (PBK) | kinase-Nluc reporter destabilization hit call (PDGFRB) | kinase-Nluc reporter destabilization hit call (PDK1) | kinase-Nluc reporter destabilization hit call (PDPK1) | kinase-Nluc reporter destabilization hit call (PIK4CA) | kinase-Nluc reporter destabilization hit call (PIK4CB) | kinase-Nluc reporter destabilization hit call (PLK1) | kinase-Nluc reporter destabilization hit call (PRKAA1) | kinase-Nluc reporter destabilization hit call (PRKCA) | kinase-Nluc reporter destabilization hit call (PTK2) | kinase-Nluc reporter destabilization hit call (PTK2B) | kinase-Nluc reporter destabilization hit call (RAF1) | kinase-Nluc reporter destabilization hit call [1]
8 | O=C1c2ccccc2-c2n[nH]c3cccc1c23 (10 µM) | inactive: 0 | inactive: 0 | inactive: 0 | inactive: 0 | inactive: 0 | inactive: 0 | inactive: 0 | inactive: 0 | inactive: 0 | inactive: 0 | inactive: 0 | inactive: 0 | inactive: 0 | inactive: 0 | inactive: 0 | inactive: 0 | inactive: 0 | inactive: 0 | inactive: 0 | inactive: 0
12 | C=CC(=O)Nc1cccc(Nc2nc(Nc3ccc(OCCOC)cc3)ncc2F)c1 [Spebrutinib] (10 µM) | inactive: 0 | inactive: 0 | inactive: 0 | inactive: 0 | inactive: 0 | inactive: 0 | inactive: 0 | inactive: 0 | inactive: 0 | inactive: 0 | inactive: 0 | inactive: 0 | inactive: 0 | inactive: 0 | inactive: 0 | inactive: 0 | inactive: 0 | inactive: 0 | inactive: 0 | inactive: 0
9 | COc1ccc(Oc2cc(NCCC(F)(F)F)c3ncc(-c4ccc(C(=O)NC5CC5)c(C)c4)n3n2)c(F)c1F (2.5 µM) | inactive: 0 | inactive: 0 | inactive: 0 | inactive: 0 | inactive: 0 | inactive: 0 | inactive: 0 | inactive: 0 | inactive: 0 | inactive: 0 | inactive: 0 | inactive: 0 | inactive: 0 | inactive: 0 | inactive: 0 | inactive: 0 | inactive: 0 | inactive: 0 | inactive: 0 | inactive: 0
